At least one peptide structure holds a part that was inferred or is arguable (an end, a ring closure or a residue). Where no end group is shown, it is not given here.
Tested on: Various microbial strains shown in Table 4
Test: Antimicrobial spectrum, derivative compared with parent peptide
Type: cell-based

Substance: RRWQWR-NH2 [compound 17, Arg-Arg-Trp-Gln-Trp-Arg-NH2]
- antimicrobial activity relative to sample No. 6 (derivative versus parent peptide sample No. 6): about eight

Substance: KTRRWQWRMKK-NH2 [Sample No. 18, Lys-Thr-Arg-Arg-Trp-Gln-Trp-Arg-Met-Lys-Lys-NH2]
- antimicrobial activity relative to sample No. 11 (against Gram-negative strains, versus parent peptide sample No. 11): about twice
